Data as given in PubChem BioAssay AID652259 (Drosophila RNAi Screening Center, 2013)
Aim: 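Identify new Wingless signalling regulators in fly cells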 (primary screen). Cell system: Drosophila clone 8 imaginal disc epithelial cells. Reagent: long dsRNA against Drosophila genes. Conditions: pathway stimulated by co-transfected Wingless expression plasmid. Measured: 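Dual luciferase reads per well after Wingless plasmid stimulation: reporter firefly light and Renilla control light; activity is firefly divided by Renilla, a ratio not deposited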. Direction: firefly reporter light: higher = more Wg reporter light, before normalisation; Renilla control light: higher = more transfected or surviving cells. Rule for the call: 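Strong candidates differ from their plate mean by at least two out of four per-plate statistical tests; weak candidates meet just one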. Calls: active = candidate regulator (raises or lowers reporter); inactive = not a candidate.
The screen tested about 22,000 reagents; this is an unselected part of those with a known target gene and a result. Of all reagents, 233 (1.1%) are marked active. 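Light values are raw, unnormalised plate reads; the ratio scores behind the reporter calls were not deposited.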 A number with no mark means an inactive call. The numbers tell different reagents against one gene apart. A plus sign joins genes that one reagent is predicted to hit. No sequences are given here. Not stated in the record: the amount of reagent, the time to read-out, the dose of the treatment.

| predicted target | reagent no. | reporter change call, replicate 1 | firefly reporter light, replicate 1 | firefly reporter light, replicate 2 | Renilla control light, replicate 1 | Renilla control light, replicate 2 |
| --- | --- | --- | --- | --- | --- | --- |
| simj (simjang) | 1 | – | 2364 | – | 1242 | – |
| CG4496 | 1 | – | 1936 | 6705 | 673 | 2007 |
| CG10413 | 1 | – | 15618 | – | 5639 | – |
| CG13041 | 1 | – | 6256 | – | 3032 | – |
| dbr (debra) | 1 | – | 9360 | – | 3066 | – |
| ATPsynO (ATP synthase, oligomycin sensitivity conferring protein) | 1 | – | 6832 | – | 3178 | – |
| ndl (nudel) | 1 | – | 1769 | 6709 | 1016 | 2656 |
| CG42455 + vnc | 1 | – | 5827 | – | 2936 | – |
| EndoG (Endonuclease G) | 1 | – | 11655 | – | 4022 | – |
| EndoG (Endonuclease G) | 2 | – | 8.02e5 | 6.78e5 | 3.22e5 | 14389 |
| RpL23 (Ribosomal protein L23) | 1 | – | 3117 | 6930 | 484 | 1827 |
| FLASH (FLICE-associated huge protein) | 1 | – | 3920 | – | 1264 | – |
| Prx2 (Peroxiredoxin 2) | 1 | – | 14392 | – | 9355 | – |
| CG33160 | 1 | – | 4373 | – | 1850 | – |
| CG8563 | 1 | – | 1115 | 5145 | 1030 | 2503 |
| CG32726 | 1 | – | 3216 | – | 1240 | – |
| Usp1 (Ubiquitin specific protease 1) | 1 | – | 2404 | 5802 | 1178 | 3216 |
| CG32277 | 1 | – | 5363 | – | 2188 | – |
| CG33110 | 1 | – | 12945 | – | 5362 | – |
| CG33110 | 2 | – | 24323 | – | 13265 | – |
| Ykt6 (YKT6 v-SNARE) | 1 | – | 2493 | 5064 | 873 | 1444 |
| CG15708 | 1 | – | 6368 | – | 1952 | – |
| Pez | 1 | – | 1607 | 8144 | 416 | 2715 |
| Or22c (Odorant receptor 22c) | 1 | – | 2087 | 5515 | 871 | 2474 |
| Tet (Ten-Eleven Translocation (TET) family protein) | 1 | – | 5312 | – | 1200 | – |
| Tet (Ten-Eleven Translocation (TET) family protein) | 2 | – | 19760 | – | 4706 | – |
| Tet (Ten-Eleven Translocation (TET) family protein) | 3 | – | 5273 | – | 1953 | – |
| betaTub56D (beta-Tubulin at 56D) | 1 | – | 5117 | – | 1544 | – |
| Grl58a (Gustatory receptor-like 58a) | 1 | – | 3111 | 6496 | 896 | 2160 |
| CG33337 | 1 | – | 5559 | – | 1657 | – |
| lbk (lambik) | 1 | – | 12064 | – | 2745 | – |
| CG4239 | 1 | – | 2908 | 8489 | 787 | 2016 |
| Dph4 (Diphthamide biosynthesis 4) | 1 | – | 8777 | – | 2616 | – |
| en (engrailed) | 1 | – | 6903 | – | 2464 | – |
| pad (poils au dos) | 1 | – | 18935 | – | 3769 | – |
| Sol1 | 1 | – | 13266 | – | 3605 | – |
| Sol1 | 2 | – | 12283 | – | 3513 | – |
| Sol1 | 3 | – | 11559 | – | 3702 | – |
| CG13102 + Rcd-1r | 1 | – | 2733 | 7382 | 979 | 4144 |
| CG15905 | 1 | – | 8032 | – | 2952 | – |
| Nab2 (Nuclear polyadenosine RNA-binding 2) | 1 | – | 4757 | 3367 | 1467 | 1434 |
| Usp12-46 (Ubiquitin-specific protease 12/46) | 1 | – | 16893 | – | 13638 | – |
| CG31678 | 1 | – | 12967 | – | 3176 | – |
| CG31678 | 2 | – | 2324 | 7208 | 843 | 2755 |
| Nos (Nitric oxide synthase) | 1 | – | 9035 | – | 3289 | – |
| CG9215 | 1 | – | 23056 | – | 8951 | – |
| BomS1 (Bomanin Short 1) | 1 | – | 7.95e5 | 7.79e5 | 2.60e5 | 2.44e5 |
| pncr004:X (retired record) | 1 | – | 4167 | – | 1777 | – |
| Prestin | 1 | – | 4152 | – | 2032 | – |
| CG17344 | 1 | – | 1953 | 6694 | 861 | 3286 |
| fkh (fork head) | 1 | – | 8773 | – | 2931 | – |
| agt (O-6-alkylguanine-DNA alkyltransferase) | 1 | – | 10818 | – | 2267 | – |
| Osi1 (Osiris 1) | 1 | – | 21133 | – | 5241 | – |
| CG14668 | 1 | – | 11649 | – | 3522 | – |
| whe (what else) | 1 | – | 21584 | – | 10146 | – |
| CG9410 + CG15908 | 1 | – | 2340 | 7003 | 656 | 1674 |
| CG9410 + CG15908 | 2 | – | 3137 | 9738 | 852 | 3269 |
| CG2182 | 1 | – | 3555 | – | 2295 | – |
| CG10903 | 1 | – | 16966 | – | 4899 | – |
| Sirt2 (Sirtuin 2) | 1 | – | 10400 | – | 3025 | – |
| CG30383 | 1 | – | 13240 | – | 6552 | – |
| CG15071 | 1 | – | 5140 | – | 2010 | – |
| Scgdelta (Sarcoglycan delta) | 1 | – | 21505 | – | 18112 | – |
| for (foraging) | 1 | – | 20914 | – | 9141 | – |
| for (foraging) | 2 | – | 9642 | – | 4746 | – |
| CG2816 | 1 | Wg reporter activity raised | 6120 | 8328 | 884 | 2485 |
| CG15760 | 1 | – | 21861 | – | 11330 | – |
| CG13575 | 1 | – | 3076 | 12263 | 914 | 3968 |
| CG13575 | 2 | – | 4.40e5 | 4.46e5 | 1.83e5 | 1.84e5 |
| Sec15 (Secretory 15) | 1 | – | 28550 | – | 7645 | – |
| CG15362 | 1 | – | 4119 | 6359 | 1520 | 2992 |
| Mon1 (Monensin sensitivity 1) | 1 | – | 2464 | 6557 | 1093 | 2160 |
| Ndc80 | 1 | – | 3815 | 8944 | 1259 | 2544 |
| Ndc80 | 2 | – | 5.14e5 | 5.86e5 | 1.65e5 | 1.70e5 |

In a second layout: results already given.
predicted target | reagent no. | reporter change call, replicate 1 | firefly reporter light, replicate 1 | firefly reporter light, replicate 2 | Renilla control light, replicate 1 | Renilla control light, replicate 2
whe (what else) | 1 | – | 21584 | – | 10146 | –
CG9410 + CG15908 | 1 | – | 2340 | 7003 | 656 | 1674
CG9410 + CG15908 | 2 | – | 3137 | 9738 | 852 | 3269
CG2182 | 1 | – | 3555 | – | 2295 | –
CG10903 | 1 | – | 16966 | – | 4899 | –
Sirt2 (Sirtuin 2) | 1 | – | 10400 | – | 3025 | –
CG30383 | 1 | – | 13240 | – | 6552 | –
